Experimental data: PMC2612750
The exact form of at least one protein or probe is not confirmed. Negatives hold for the conditions tested. At least one verdict rests on a figure or table, not on a statement of the authors. A weaker result is weaker than the reference pair of the same experiment.

By UniProt entry, the sequences of proteins in these tests, tags left out. Residues count along the entry.
UniProt P63015, 4-130: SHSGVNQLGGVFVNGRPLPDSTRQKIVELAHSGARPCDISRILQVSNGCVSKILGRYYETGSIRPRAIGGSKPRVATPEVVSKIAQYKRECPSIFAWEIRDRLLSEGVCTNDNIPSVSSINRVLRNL
UniProt P63015, 4-269: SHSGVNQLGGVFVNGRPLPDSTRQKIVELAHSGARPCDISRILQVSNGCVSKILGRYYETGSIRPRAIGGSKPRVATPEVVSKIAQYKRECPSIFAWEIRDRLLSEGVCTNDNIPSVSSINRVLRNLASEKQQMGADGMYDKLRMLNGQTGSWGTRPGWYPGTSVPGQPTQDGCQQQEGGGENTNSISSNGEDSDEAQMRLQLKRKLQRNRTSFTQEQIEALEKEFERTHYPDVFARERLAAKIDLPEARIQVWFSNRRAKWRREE

Columns and labels:
Pax6 GST-PD = Pax6 GST-PD (UniProt P63015); assay: EMSA; conditions: EMSA: 0.5-1 ng 5'-end-labelled probe, 2 ug poly(dI-dC), room temperature 10 min, 5% PAGE in 0.5x TBE, competitor 50 ng cold P6CON (~50:1), binding buffer, recombinant protein, protein details: GST, label: 5'-end label (radioactive)
Pax6 GST-PD/HD = Pax6 GST-PD/HD (UniProt P63015); assay: EMSA; conditions: EMSA: 0.5-1 ng 5'-end-labelled probe, 2 ug poly(dI-dC), room temperature 10 min, 5% PAGE in 0.5x TBE, competitor 50 ng cold P6CON (~50:1), binding buffer, recombinant protein, protein details: GST, label: 5'-end label (radioactive)
[1] = lower than P6CON, PD lower than PD/HD
[2] = lower than P6CON, higher than PD

Row | Sequence | binding result (Pax6 GST-PD) | binding result (Pax6 GST-PD/HD) | other results
1 | ACTGCTGACCTAACTCTTGAGTTCTCCGGGAT (double strand) [Tgfb2 site 10] | no binding | no binding | 
2 | AGCCCTGAAGACATGCCTTCCAATCTGAGAC (double strand) [Tgfb2 site 9] | no binding | no binding | 
3 | ATCCGTCTCATCATACTTGAGTTAATGAGGCA (double strand) [Mab21l2 site 5] |  |  | binding result (Pax6 GST-PD; [1]): binds more weakly; binding result (Pax6 GST-PD/HD; [2]): binds more weakly
4 | CCCCAAAAGGAAAGTGAAGGATGTAATTAATGCC (double strand) [Mab21l2 site 1] |  |  | binding result (Pax6 GST-PD; [1]): binds more weakly; binding result (Pax6 GST-PD/HD; [2]): binds more weakly
5 | CCCGGAGAGCAGCGAAGTACAGCTCAGGCCG (double strand) [Mab21l2 site 2] | no binding | no binding | 
6 | GATAGATGGCTTTGATGCGTAAAACTTGAGAG (double strand) [Tgfb2 site 6] |  |  | binding result (Pax6 GST-PD; lower than P6CON): binds more weakly; binding result (Pax6 GST-PD/HD; lower than P6CON): binds more weakly
7 | GCTCCTTGATGGTGTATTAAAACGAAGTGGCAGCTCCT (double strand) [Mab21l2 site 4] | no binding | no binding | 
8 | TCCGGGTTTTTCCTCTCCTCTGGGTTGCGTT (double strand) [Mab21l2 site 3] | no binding | no binding | 
9 | TCCTGACCACAACTCTCTAGTGACTACTCCA (double strand) [Tgfb2 site 7] | no binding | no binding | 
10 | TGTCACACAGTATCATAACTTGACATTTTCTACTTCAACTTGCTCA (double strand) [Tgfb2 site 11/12] |  |  | binding result (Pax6 GST-PD; lower than P6CON): binds more weakly; binding result (Pax6 GST-PD/HD; lower than P6CON): binds more weakly
11 | TTAGCCACATCATTCACTCATCACACAAACTC (double strand) [Tgfb2 site 8] |  |  | binding result (Pax6 GST-PD; lower than P6CON): binds more weakly; binding result (Pax6 GST-PD/HD; lower than P6CON): binds more weakly
